From patent US10894255B2, “Leukocyte and microparticles fractionation using microfluidics” (Nanyang Technological University, priority 2015, dated 2021)
At least one compound was matched to its structure with a doubt left.

Test system: DFF-purified neutrophils rolling on E-selectin
Experiment: Microfluidic neutrophil rolling assay on E-selectin-coated microchannel
Type: cell-based, human
Details: DFF-purified neutrophils of healthy subjects incubated with metformin 1 mM or pravastatin 20 μM for 1 h; vs untreated controls, all paired observations, P<0.05
Text: In another aspect, the present invention also relates to a microfluidic flow channel, wherein its inner wall is coated with E-selectin. Such channel may have a length of at least 0.1 cm. Preferably, the channel has a length of 0.5-2 cm. The width may be at least 200 μm, preferably between 350-500 μm. The channel height may be at least 40 μm, preferably between 45-75 μm and more preferably the height is 60 μm. An example to determine the rolling speed by using an E-selectin coated channel is given below. Briefly, a straight microchannel (1 cm length by 400 μm width by 60 μm height) can be coated with E-selectin (50 μg/mL, Peprotech) for 1 h at 4° C. and blocked with 0.5% BSA in PBS for 30 min at room temperature. After blocking, the channel can be connected to a syringe loaded with 0.1% BSA in PBS to prime and wash away excess E-selectin in the channel. […]
After having established that neutrophils from T2DM patients rolled faster on E-selectin as compared to healthy subjects, it was determined if these functional differences can be associated to clinical conditions by analyzing rolling speed frequencies in T2DM patients that are higher than the average rolling speed of healthy subjects (≥5 μm/sec). […]

**Q.** For `CC[C@H](C)C(=O)O[C@H]1C[C@H](O)C=C2C=C[C@H](C)[C@H](CC[C@@H](O)C[C@@H](O)CC(=O)O)[C@H]21` [pravastatin], which “Average rolling speed of drug-treated neutrophils” value is on record?
**A.** The value was “higher than controls”.
